Data: PubChem BioAssay AID330 (DTP/NCI, 2004)
The list shows only some results of the screen, not a fair sample: it gathers tests that were run many times, whatever their T/C, doses with no T/C, and many T/C values between a quarter and a half above the control. Other doses and runs of a compound stand elsewhere. T/C gives the treated animals as a percentage of the vehicle group. Some doses have a count of surviving animals in place of a T/C: the source files T/C as zero there, which appears to mark a toxic dose or a test without result, not a measured value. Some survivor counts are full or nearly so, which does not show that the dose was tolerated: survival well below the control is almost never listed, so the zero probably covers shortened survival too. Survivors were counted at the toxicity check, usually on the fifth day, unless a day is given; later deaths do not show. Schedules are NCI's codes, read here as Q, the interval in days (D) or hours (H), X, the number of doses. For survival time, this PubChem deposit counts one and a half times the control or more as active, and values a quarter to a half above the control carry no call in these data; other NCI protocols may use other cut-offs. Some doses were run more than once; the results are listed from low to high. Some T/C values carry the count of animals alive at the toxicity check (mostly the fifth day); without a count, all were alive then.

Test system: P388 leukemia ip, CD2F1 mice, survival T/C
Assay: NCI In Vivo Anticancer Drug Screen. Data for tumor model P388 Leukemia (intraperitoneal) in CD2F1 (CDF1) mice
Settings: T/C endpoint: median survival time, higher T/C = longer survival
[1] = dose: 50.0 mg/kg/injection, schedule: Q01DX005 (ip), vehicle: Klucel (hydroxypropylcellulose) (HPC)
[2] = dose: 100.0 mg/kg/injection, schedule: Q01DX005 (ip), vehicle: Klucel (hydroxypropylcellulose) (HPC)
[3] = dose: 200.0 mg/kg/injection, schedule: Q01DX005 (ip), vehicle: Klucel (hydroxypropylcellulose) (HPC)
[4] = dose: 100.0 mg/kg/injection, schedule: Q01DX005 (ip), vehicle: saline with Tween-80
[5] = dose: 200.0 mg/kg/injection, schedule: Q01DX005 (ip), vehicle: saline with Tween-80
[6] = dose: 400.0 mg/kg/injection, schedule: Q01DX001 (ip), vehicle: saline with Tween-80
[7] = dose: 200.0 mg/kg/injection, schedule: Q01DX009 (ip), vehicle: Klucel (hydroxypropylcellulose) (HPC)
[8] = dose: 200.0 mg/kg/injection, schedule: Q01DX009 (ip), vehicle: saline with Tween-80
[9] = dose: 240.0 mg/kg/injection, schedule: Q01DX005 (ip), vehicle: saline with Tween-80

## CCN(CC)C(=O)c1cccc(COc2ccc(N3C(N)=NC(N)=NC3(C)C)cc2Cl)c1
dose: 16.5 mg/kg/injection, schedule: Q01DX009 (ip), vehicle: saline with Tween-80
  T/C: 127 % of control
dose: 25.0 mg/kg/injection, schedule: Q01DX009 (ip), vehicle: saline sonified
  T/C: 131 % of control
dose: 25.0 mg/kg/injection, schedule: Q01DX009 (ip), vehicle: saline with Tween-80
  T/C: 140 % of control
dose: 37.5 mg/kg/injection, schedule: Q01DX009 (ip), vehicle: saline with Tween-80
  survivor count: 3 of 6
dose: 200.0 mg/kg/injection, schedule: Q04DX003 (ip), vehicle: saline sonified
  survivor count: 5 of 6

## Cc1c2cc[n+](C)c(C)c2cc2c1[nH]c1ccccc12
dose: 80.0 mg/kg/injection, schedule: Q04DX002 (ip), vehicle: water
  survivor count: 6 of 6
dose: 160.0 mg/kg/injection, schedule: Q04DX002 (ip), vehicle: water
  survivor count: 0 of 6

## c1cc[n+](CCC[n+]2ccccc2)cc1
dose: 400.0 mg/kg/injection, schedule: Q01DX009 (ip), vehicle: saline
  survivor count: 1 of 6

## O=C([O][Sn]([O]C(=O)c1ccccc1)([c]1ccccc1)[c]1ccccc1)c1ccccc1
dose: 25.0 mg/kg/injection, schedule: Q01DX005 (ip), vehicle: Klucel (hydroxypropylcellulose) (HPC)
  T/C: 125 % of control [5 of 6 alive]
[1]
  survivor count: 1 of 6
[2]
  survivor count: 0 of 6
[3]
  survivor count: 0 of 6

## CC(=O)NC1=CC(=Nc2ccc(N(C)C)cc2)C=CC1=O
dose: 50.0 mg/kg/injection, schedule: Q01DX005 (ip), vehicle: saline with Tween-80
  survivor count: 0 of 5
[4]
  survivor count: 0 of 5
[5]
  survivor count: 0 of 5

## CC(C)[C@](O)(C(=O)OCC1CCN2CC[C@@H](O)C12)[C@H](C)O (stereo partly drawn)
dose: 325.0 mg/kg/injection, schedule: Q01DX009 (ip), vehicle: saline
  survivor count: 0 of 6
dose: 650.0 mg/kg/injection, schedule: Q01DX009 (ip), vehicle: saline
  survivor count: 0 of 6
dose: 1300.0 mg/kg/injection, schedule: Q01DX009 (ip), vehicle: saline
  survivor count: 0 of 6

## CCCCNC(=S)NNC(=O)CNC(c1ccc(OC)cc1)C(CC)c1ccc(OC)cc1 (stereo not drawn)
[6]
  survivor count: 0 of 6

## O=C1CN(/N=C/c2ccc(-c3cccc(C(F)(F)F)c3)o2)C(=O)N1
dose: 200.0 mg/kg/injection, schedule: Q04DX002 (ip), vehicle: saline with Tween-80
  survivor count: 3 of 6

## Cc1nc2sccn2c1/C=N/O
dose: 100.0 mg/kg/injection, schedule: Q04DX002 (ip), vehicle: Klucel (hydroxypropylcellulose) (HPC)
  survivor count: 0 of 6
dose: 200.0 mg/kg/injection, schedule: Q04DX002 (ip), vehicle: Klucel (hydroxypropylcellulose) (HPC)
  survivor count: 0 of 6
dose: 400.0 mg/kg/injection, schedule: Q04DX002 (ip), vehicle: Klucel (hydroxypropylcellulose) (HPC)
  survivor count: 0 of 6

## CN(C)CC(Cl)CCl (stereo not drawn)
dose: 50.0 mg/kg/injection, schedule: Q01DX009 (ip), vehicle: saline
  T/C: 127 % of control
dose: 100.0 mg/kg/injection, schedule: Q01DX009 (ip), vehicle: saline
  T/C: 145 % of control
dose: 200.0 mg/kg/injection, schedule: Q04DX003 (ip), vehicle: saline
  T/C: 127 and 136 % of control

## COc1cc2c(cc1CN(C)C)[nH]c1c3ccc(Cl)cc3ncc21
[4]
  survivor count: 5 of 6
[5]
  survivor count: 1 of 6

## CN1[C@H]2CC[C@@H]1[C@@H](O)CC2
[5]
  survivor count: 2 of 6

## CCN(CC)CCNC1CC(C)CC(C)(C)C1 (stereo not drawn)
[5]
  survivor count: 0 of 6

## Cc1cc(C)nc(NS(=O)(=O)c2ccc(N=NC3=C(O)C(c4ccccc4)N(c4ccccc4)C3=O)cc2)n1 (stereo not drawn)
dose: 240.0 mg/kg/injection, schedule: Q01DX005 (ip), vehicle: saline
  survivor count: 2 of 6

## CCCCCCCCCCCCOC(=O)c1ccc(OP(=O)(O)OCc2ccccc2)cc1
dose: 100.0 mg/kg/injection, schedule: Q01DX009 (ip), vehicle: Klucel (hydroxypropylcellulose) (HPC)
  survivor count: 1 of 6
[7]
  survivor count: 4 of 6

## COC(=O)C1=NOC2C(=O)N(c3ccccc3)C(=O)C12 (stereo not drawn)
[5]
  survivor count: 0 of 6

## O=C(CNNC(=O)OCc1ccccc1)OCc1ccccc1
dose: 200.0 mg/kg/injection, schedule: Q01DX009 (ip), vehicle: other
  survivor count: 5 of 6

## COc1ccc(Nc2ccc([N+](=O)[O-])c3nonc23)cc1
[5]
  survivor count: 6 of 6

## CCOc1ccc(S(=O)(=O)c2ccc(C)cc2)c2c1no[n+]2[O-]
dose: 3.75 mg/kg/injection, schedule: Q01DX009 (ip), vehicle: saline with Tween-80
  survivor count: 6 of 6
dose: 15.0 mg/kg/injection, schedule: Q01DX009 (ip), vehicle: saline with Tween-80
  survivor count: 6 of 6

## CN1CC2c3cc4c(cc3CC1c1cc3c(cc12)OCO3)OCO4 (stereo not drawn)
[6]
  survivor count: 0 of 6

## CC1(C)N=C(N)N=C(N)N1c1ccc(CCCCc2cccc(S(=O)(=O)F)c2)c(Cl)c1
dose: 0.38 mg/kg/injection, schedule: Q01DX009 (ip), vehicle: saline with Tween-80
  T/C: 125 % of control
dose: 2.2 mg/kg/injection, schedule: Q01DX009 (ip), vehicle: saline with Tween-80
  T/C: 145 % of control
dose: 5.5 mg/kg/injection, schedule: Q01DX009 (ip), vehicle: saline with Tween-80
  T/C: 145 % of control
dose: 27.0 mg/kg/injection, schedule: Q01DX009 (ip), vehicle: saline
  survivor count: 5 of 6
dose: 40.0 mg/kg/injection, schedule: Q01DX009 (ip), vehicle: saline
  survivor count: 0 of 6

## NNC(=O)CNC(=O)Nc1n[nH]c(=S)s1
[8]
  survivor count: 5 of 6

## O=S1(=O)CCN(Cc2ccco2)CC1
[7]
  survivor count: 3 of 6

## CCc1cnc(=S)n(-c2ccccc2)c1
[6]
  survivor count: 0 of 6

## CC1(C)OC2C(COC(=O)c3ccccc3)OC(n3cnc4c(=NC(=O)c5ccccc5)n(C(=O)c5ccccc5)cnc43)C2O1 (stereo not drawn)
[3]
  survivor count: 6 of 6

## C=CCC1=CC2(OC)C(=O)C(OC)(OC)C1C1C(OC)(OC)C(=O)C(OC)=CC12CC=C (stereo not drawn)
dose: 37.5 mg/kg/injection, schedule: Q01DX009 (ip), vehicle: Klucel (hydroxypropylcellulose) (HPC)
  T/C: 126 % of control
dose: 150.0 mg/kg/injection, schedule: Q01DX009 (ip), vehicle: Klucel (hydroxypropylcellulose) (HPC)
  T/C: 133 % of control [5 of 6 alive]

## CCN(CC)CCCNC(=O)c1noc2cc([N+](=O)[O-])ccc12
dose: 50.0 mg/kg/injection, schedule: Q01DX005 (ip), vehicle: saline
  survivor count: 3 of 5
dose: 100.0 mg/kg/injection, schedule: Q01DX005 (ip), vehicle: saline
  survivor count: 0 of 5
dose: 200.0 mg/kg/injection, schedule: Q01DX005 (ip), vehicle: saline
  survivor count: 0 of 5

## C=C1CCN(c2ccc(F)cc2)C1=O
dose: 16.0 mg/kg/injection, schedule: Q01DX009 (ip), vehicle: saline + alcohol
  T/C: 125 % of control

## CC(C)C(N)C(=O)Nc1nncs1 (stereo not drawn)
dose: 100.0 mg/kg/injection, schedule: Q04DX002 (ip), vehicle: saline
  T/C: 127 % of control
dose: 200.0 mg/kg/injection, schedule: Q04DX002 (ip), vehicle: saline
  T/C: 128 % of control

## Fc1ccc(NC(=S)NC2CC2)c(F)c1
[8]
  survivor count: 0 of 6

## NC[CH2][Sn]([c]1ccccc1)([CH]1CCCCC1)[CH]1CCCCC1
dose: 15.0 mg/kg/injection, schedule: Q01DX005 (ip), vehicle: saline with Tween-80
  survivor count: 3 of 6
dose: 30.0 mg/kg/injection, schedule: Q01DX005 (ip), vehicle: saline with Tween-80
  survivor count: 0 of 6
dose: 60.0 mg/kg/injection, schedule: Q01DX005 (ip), vehicle: saline with Tween-80
  survivor count: 0 of 6
dose: 120.0 mg/kg/injection, schedule: Q01DX005 (ip), vehicle: saline with Tween-80
  survivor count: 1 of 6
[9]
  survivor count: 0 of 6

## CCOc1ccc2nc3cc(N=Nc4ccc(N(C)C)cc4)ccc3c(N)c2c1
[8]
  survivor count: 1 of 6

## O=C1N(C2CCCCC2)C(/C=C/c2ccccc2)C1(c1ccccc1)c1ccccc1 (stereo not drawn)
[1]
  survivor count: 6 of 6
[2]
  survivor count: 6 of 6

## COC(=O)C(O)(/C(=N\O)c1ccccc1)c1ccccc1 (stereo not drawn)
[9]
  survivor count: 6 of 6

## CC1(C)NC(=S)N(O)C1(C)C
dose: 200.0 mg/kg/injection, schedule: Q01DX009 (ip), vehicle: saline
  survivor count: 1 of 6

## NC1=NN(O)C2=CC(F)C=CC2=N1 (stereo not drawn)
[7]
  T/C: 127 % of control
